“And” between values parts separate entries of the source, which are not always exact repeats. Equal entries are not always repeated. About 1,800 (2.3%) of roughly 78,000 compounds were called active. This list was built around the results that the source calls inconclusive (neither active nor inactive); the mix of calls is not that of the screen. Rule as the data show it: active = inhibition above about 30%; inconclusive = mostly about 10% to 28%; inactive = weaker than that.
biological target: Interleukin-1 receptor-like 1 (Homo sapiens) (UniProt Q01638); assay: blocks human ST2 binding to IL-33, primary screen, biochemical, AlphaLISA (AID 1259354); conditions: AlphaLISA ST2-Fc/biotin-IL-33 interaction, 1 h; at 17 µM, stronger effect = higher value

Protein sequences, listed by entry. Tags and fused reporters are not part of them. Lines headed by an entry give the natural chain unless they say otherwise; changes in a name come on top.
UniProt Q01638: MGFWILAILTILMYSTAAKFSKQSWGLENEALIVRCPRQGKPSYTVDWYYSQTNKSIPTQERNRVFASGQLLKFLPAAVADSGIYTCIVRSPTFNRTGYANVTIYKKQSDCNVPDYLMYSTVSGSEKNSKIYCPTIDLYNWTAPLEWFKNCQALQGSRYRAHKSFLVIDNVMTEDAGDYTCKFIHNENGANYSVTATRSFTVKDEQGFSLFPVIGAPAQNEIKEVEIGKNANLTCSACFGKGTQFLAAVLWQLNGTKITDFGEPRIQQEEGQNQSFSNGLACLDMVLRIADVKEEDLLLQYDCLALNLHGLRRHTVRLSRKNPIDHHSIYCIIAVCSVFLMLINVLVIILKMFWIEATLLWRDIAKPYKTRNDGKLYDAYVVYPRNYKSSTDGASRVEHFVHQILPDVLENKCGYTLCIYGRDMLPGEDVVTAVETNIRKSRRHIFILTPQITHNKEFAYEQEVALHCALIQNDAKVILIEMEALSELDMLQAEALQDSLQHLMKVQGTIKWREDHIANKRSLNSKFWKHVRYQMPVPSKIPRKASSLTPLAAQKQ

SMILES	inhibition
Cc1cc(NC(=O)c2noc3c2CCCC3)n(-c2ccccc2)n1	inconclusive: 10%
O=C1N(CC2CCC2)CCCC12CCN(C1Cc3ccccc3C1)C2 (stereo unspecified)	inconclusive: 23%
O=C(CCn1nnc2ccccc21)NCc1cnn2ccccc12	inconclusive: 13%
O=C(CN1C(=O)CC(c2ccccc2)Sc2ccccc21)N1CCCC1 (stereo unspecified)	inactive
CC(=O)c1ccc(OCCOc2ccc([N+](=O)[O-])cc2)cc1	inconclusive: 14%
O=C(Nc1ccc(F)c(Cl)c1)c1noc2c1CCc1ccccc1-2	inconclusive: 11%
Cc1sc(NC(=O)C(c2ccccc2)c2ccccc2)c(C(N)=O)c1C	inconclusive: 15%
COc1ccccc1NC(=O)CSC1=Nc2ccccc2C2=NC(C(C)C)C(=O)N12 (stereo unspecified)	inconclusive: 10%
CCCCCCCCCCCCCCCC(=O)NCCO	inconclusive: 16%
CCCCCCCCCCCCCCCC(=O)OC(CC(=O)O)C[N+](C)(C)C (stereo unspecified)	inconclusive: 12%
Cc1ccc(-c2noc([C@@H]3C[C@H](NC(=O)COc4ccccc4)CN3C)n2)cc1	inconclusive: 17%
O=C(NC1CCCCCCC1)c1ccc2nc3ccc(Cl)cc3c(=O)n2c1	inactive
CC(=O)N[C@H]1C[C@@H](c2nc(-c3ccccc3)no2)N(C)C1	inconclusive: 16%
O=C(Nc1ccc(Cl)cc1)Nc1ccc2n(c1=O)C[C@H]1C[C@@H]2CN(C(=O)Cc2cccs2)C1	inactive
O=C(NCCN1CCOCC1)c1cc(-c2ccc(Cl)s2)nc2ccccc12	inconclusive: 20% and inconclusive: 17%
CCC(CC)C(=O)NC[C@H]1O[C@@H](CC(=O)NC(C)C)[C@H](O)[C@@H]1O	inconclusive: 10%
COc1ccc(/C=C2\C=C(c3ccc(Cl)cc3)OC2=O)cc1C	inconclusive: 13%
CC(Cc1ccc(O)c(O)c1)C(C)Cc1ccc(O)c(OC(=O)c2ccc(O)cc2)c1 (stereo unspecified)	inconclusive: 15%
O=[N+]([O-])c1cc(C(F)(F)F)cc([N+](=O)[O-])c1Sc1nnnn1-c1ccccc1	inconclusive: 24%
O=C1C2CCCCC2C(=O)N1c1ccc(Cl)c(F)c1 (stereo unspecified)	inactive
COc1ccc(C(=O)N2N=C(c3cccc(Br)c3)CC2(O)C(F)(F)F)cc1 (stereo unspecified)	inactive
Cc1c(C)n2c3c(cccc13)CCC2	active: 52%
O=C(c1cc(C2CC2)[nH]n1)N(CC1CCN(C2Cc3ccccc3C2)CC1)CC1CCCO1 (stereo unspecified)	inconclusive: 10%

A few values from the list:
Value for `O=[N+]([O-])c1cc(C(F)(F)F)cc([N+](=O)[O-])c1Sc1nnnn1-c1ccccc1` under inhibition: inconclusive: 24%
Value for `O=C1N(CC2CCC2)CCCC12CCN(C1Cc3ccccc3C1)C2` (stereo unspecified) under inhibition: inconclusive: 23%

Additional results:

SMILES	inhibition
CCC1CN(Cc2cnc(-c3cccs3)nc2)CCN1C(C)C (stereo unspecified)	inconclusive: 15%
CC(C)OCCCNC(=O)CN1C(=O)/C(=C\c2cccc(Cl)c2)Sc2ccccc21	inconclusive: 24%
CCCNC(=O)O[C@@H]1CC[C@]2(C)[C@H](CC[C@@H](O)[C@H]2CC(=O)N2CCCC2)[C@]1(C)CO	inconclusive: 12%
CC(=O)Nc1ccc(S(=O)(=O)N[C@H]2CO[C@H]3[C@@H]2OC[C@H]3OC(=O)Nc2cccc3ccccc23)cc1	inconclusive: 15%
CC(C)(C)Sc1ccc(SC#N)s1	inactive
Cc1ccc(-c2n[nH]c(=O)c3ccccc23)cc1S(=O)(=O)N1CCCCC1	inactive
CCc1nc2nc(C)c(NC(=O)Nc3ccc(F)c(Cl)c3)c(=O)n2[nH]1	inconclusive: 17%
O=C(N[C@H]1CCN2C(=O)[C@@H](Cc3ccccc3)NC(=O)[C@H]12)c1cnccn1	inconclusive: 11%
Cc1occc1C(=O)NC1CC(=O)N(CCCc2ccccc2)C1 (stereo unspecified)	inactive
CCC(=O)N(C)C(Cc1ccc(F)cc1F)C1CCN(C(=O)c2cc3cc(F)ccc3[nH]2)CC1 (stereo unspecified)	inactive
Oc1c(C=NCc2ccccc2)[nH]c2ccc(Br)c(Cl)c12	inconclusive: 23%
CC(NC(=O)CN1C(=O)/C(=C\c2ccc(Cl)cc2)Sc2ccccc21)c1ccccc1 (stereo unspecified)	inconclusive: 20%
Cc1cccc(-c2nc3sc4c(c3c(=O)[nH]2)CCCC4)c1	inconclusive: 14%
Clc1ccc(SCCCn2ccnc2)cc1	inconclusive: 18%
Cc1nnc(-c2cccc(NC(=O)C3CCN(CCC(C)c4ccccc4)CC3)c2)s1 (stereo unspecified)	inconclusive: 25%
COc1cc(NC(=O)N2C[C@@H]3C[C@H](C2)c2ccc(NS(=O)(=O)c4cccc(C(F)(F)F)c4)c(=O)n2C3)cc(OC)c1	inconclusive: 20%
CN1CCN([C@@H]2[C@H](O)[C@H](CO)O[C@@H]2CNC2CCOCC2)CC1	inconclusive: 19%
CC(C)(C)c1ccc(C(=O)Nc2ccc(S(=O)(=O)N3CCCC3)cc2)cc1	inactive
CC1CCc2c(sc3ncn(-n4cccc4)c(=O)c23)C1 (stereo unspecified)	inconclusive: 15%
COc1cccc(C2CC(=O)C3=C(C2)Nc2ccccc2NC3c2ccc(C)s2)c1 (stereo unspecified)	inconclusive: 28%
CC(=O)N1CCc2c(sc(NC(=O)c3cccs3)c2-c2nc3ccccc3s2)C1	inconclusive: 12%
CN(C)CC1(O)CCN(C(=O)c2ccnc(-n3cnnc3)c2)C1 (stereo unspecified)	inconclusive: 10%
O=C1NC[C@@H](CCC(=O)N2CCc3ccccc32)N2C[C@@H](NCc3ccc(CO)o3)C[C@@H]12	inconclusive: 15%
